## Assay results

Data taken from PubChem BioAssay AID912, deposited by NCATS (2007).

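A cell-based FRET test of anthrax lethal toxin entry, tracked through the 460 nm emission signal; the cell line is not named here.
Each compound was tested as a concentration series from about 0.0005 to 40 µM.
The number is the fitted AC50 of the 460 nm signal alone; lower values mean a more potent effect. A falling signal goes with compounds filed as inhibitors or cytotoxic, a rising one with activators or fluorescent compounds (inferred from the filed classes).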

Values are in nM.
Common to all entries: measured here: 460 nm channel.
This is a side read-out of the assay, for part of the compounds, not drawn at random.
Potencies fitted to partial, single-point or poorly fitting curves are rough.
The first word of each remark tells which way the curve ran; it can be opposite to the aim of the assay.

| # | compound | AC50 (nM) | curve as filed |
|---|---|---|---|
| 1 | `Cc1ccccc1NC(=O)CNc1ccccc1N1CCCCC1` | 12589 | falling, single point |
| 2 | `C[C@@]12CC[C@H](O)C[C@@H]1CC[C@H]1[C@H]2C[C@@H](O)[C@]2(C)[C@@H](C3=CC(=O)OC3)CC[C@@]12O` | 631 | falling, full curve |
| 3 | `Cc1ccc(NC2=NCC(=O)N2Cc2ccc3c(c2)OCO3)cc1` | 7943 | falling, partial curve |
| 4 | `CC(=O)O[C@H]1C(=O)[C@]2(C)[C@H]([C@H](OC(=O)c3ccccc3)[C@@]3(O)C[C@H](OC(=O)[C@@H](O)[C@@H](NC(=O)c4ccccc4)c4ccccc4)C(C)=C1C3(C)C)[C@]1(OC(C)=O)CO[C@@H]1C[C@@H]2O` | 12589 | falling, partial curve |
| 5 | `c1ccc2c(c1)-c1cccc3cccc-2c13` | 79.43 | falling, full curve, poor fit |
| 6 | `COC(=O)C(C)Sc1nc2c(c(=O)[nH]c(=O)n2C)n1CCC(C)C` (centres unmarked) | 31622 | rising, single point |
| 7 | `COc1ccc(C(=O)N2CCC[C@@]3(CCN(Cc4ccccc4)C3)C2)cc1` | 5012 | falling, single point |
| 8 | `COc1cccc(C(=O)Nc2ccc3nc(N4CCOCC4)cc(C)c3c2)c1` | 3981 | falling, partial curve |
| 9 | `c1ccc(-n2c(SCc3ccncc3)nnc2-c2ccco2)cc1` | 12589 | rising, partial curve, poor fit |
| 10 | `CSCCC(NC(=O)C1CCC(C)CC1)C(=O)N1CCN(c2ccccn2)CC1` (centres unmarked) | 10000 | rising, partial curve |
| 11 | `Cc1nc(Nc2ccc3c(c2)OCCO3)c2nnn(Cc3ccccc3Cl)c2n1` | 19952 | falling, partial curve |
| 12 | `Cc1noc(C)c1C(=O)N1CCC2(CC1)CCN(C(c1ccccc1)c1ccccc1)CC2` | 794.3 | rising, partial curve |
| 13 | `COC1=Cc2c(ccc3ccc(=O)oc23)OC1(C)C` | 12589 | falling, partial curve |
| 14 | `COc1nc2ccccc2cc1-c1noc(-c2cccnc2)n1` | 1585 | rising, partial curve |
| 15 | `N#Cc1cccc(NC(=O)N2CC[C@@]3(CCCN(C(=O)c4cnccn4)C3)C2)c1` | 5012 | rising, single point |
| 16 | `O=S(=O)(c1cccc2cccnc12)N1CCOCC1` | 25118 | rising, single point |
| 17 | `CSc1cccc(NC(=O)CN(c2cc(C)ccc2C)S(C)(=O)=O)c1` | 15848 | falling, partial curve |
| 18 | `Cc1ccc(S(=O)(=O)Cc2ccc(C(=O)NCc3ccc4c(c3)OCO4)o2)cc1` | 25118 | rising, single point |
| 19 | `CC1CN(C(=O)Nc2ccc3snnc3c2)c2ccccc21` (centres unmarked) | 25118 | falling, partial curve |
| 20 | `Cc1cccc(CNc2ccnc(-c3cccc(NS(C)(=O)=O)c3)n2)c1` | 5012 | falling, single point |
| 21 | `CCCOc1ccc(CSc2ncn[nH]2)cc1` | 15.85 | falling, full curve |
| 22 | `Cn1c(=O)oc2cc(S(=O)(=O)N3CCCC(C(=O)NCC4COc5ccccc5O4)C3)ccc21` (centres unmarked) | 10000 | falling, partial curve |
| 23 | `C[C@@H](C(=O)Cc1ccc2ccccc2c1)[C@@H]1C[C@@]1(C)[C@@H](NP(=O)(c1ccccc1)c1ccccc1)c1ccccc1` | 12589 | falling, single point |
| 24 | `N#Cc1cc2nc(O)c(O)nc2cc1[N+](=O)[O-]` | 12589 | falling, single point |
| 25 | `CN(C)Cc1nc2c([nH]1)c(=O)n(C)c(=O)n2C` | 251.2 | rising, single point |
| 26 | `CCc1nnc(NC(=O)CSc2nc3c(c(=O)n2C)SC(C)C3)s1` (centres unmarked) | 12589 | rising, partial curve |
| 27 | `COC(=O)[C@@]1(Cc2ccccc2)[C@H]2c3cc(C(=O)N4CCCC4)n(CCc4ccccn4)c3C[C@H]2CN1C(=O)c1ccccc1` | 15848 | rising, partial curve |
| 28 | `CCCCn1c(SCC(=O)Nc2cc(C)[nH]n2)nc2ccsc2c1=O` | 158.5 | rising, full curve |
| 29 | `COc1cccc(OC)c1OCCOCCn1cnc2ccccc2c1=O` | 1585 | falling, partial curve |
| 30 | `CN(C)c1ncc2nc(-c3ccccc3)c(=O)n(-c3ccccc3)c2n1` | 3981 | rising, full curve, poor fit |
| 31 | `COc1ccc(CCn2c(=N)c(C(=O)NCc3ccco3)cc3c(=O)n4cccc(C)c4nc32)cc1` | 7.943 | rising, full curve, poor fit |
| 32 | `COc1cccc(Cn2c(=O)c(-c3cccs3)nc3cnc(OC)nc32)c1` | 6310 | rising, partial curve |
| 33 | `COc1cc(-c2noc(-c3ccccc3C(=O)NCc3ccco3)n2)cc(OC)c1OC` | 15848 | falling, partial curve, poor fit |
| 34 | `COC(=O)c1c[nH]n2c(=O)cc(C)nc12` | 3981 | falling, full curve, poor fit |
| 35 | `CCOc1cccc(C(=O)Nc2cccc(-c3nnc(-c4ccccc4)o3)c2)c1` | 2512 | falling, full curve |
| 36 | `Brc1ccc(Oc2ccc(Br)cc2Br)c(Br)c1` | 12589 | falling, partial curve |
| 37 | `COC(=O)c1cccc(N(C(=O)CNC(=O)c2ccco2)C(C(=O)NC2CCCC2)c2ccco2)c1` (centres unmarked) | 15848 | rising, single point |
| 38 | `CC1=CC(=O)C2=C(C)C[C@H](O)[C@@H]3[C@@H](OC(=O)[C@H]3C)[C@H]12` | 12589 | falling, single point |
| 39 | `Cc1cccc(/N=C/c2c(O)c3ccccc3oc2=O)n1` | 1995 | falling, partial curve |
| 40 | `CCOc1ccc(NC(=O)c2ccc3c(c2)N(Cc2ccc(F)cc2)C(=O)CS3=O)cc1` (centres unmarked) | 5012 | falling, single point |
| 41 | `COC(=O)CCCC(=O)Nc1ccc(Cl)c(Cl)c1` | 125.9 | falling, single point |
| 42 | `N#Cc1cccc(-c2nc(NCc3ccccc3)c3ccccc3n2)c1` | 12589 | falling, single point |
| 43 | `COc1cc2c(cc1C(F)(F)F)N(C(=O)Nc1cc(F)cc(-c3cccnc3)c1)CC2` | 12589 | falling, partial curve, poor fit |
| 44 | `C=CCn1c(=O)c(C(=O)NCCc2ccccc2)c(O)c2ccccc21` | 10000 | falling, partial curve |
| 45 | `Cc1c(CN(C)CCc2ccccc2)c(=O)n(-c2ccccc2)n1C` | 10 | falling, full curve, poor fit |
| 46 | `N[C@@H](C(=O)O)c1ccc(O)c(C(=O)O)c1` | 12589 | falling, single point |
| 47 | `Cc1ccc(C)c(Cn2nnc3c(=O)[nH]c(C(=O)NCC4CCCO4)nc32)c1` (centres unmarked) | 25118 | rising, single point |
| 48 | `COc1ccccc1N1CCN(CCN(C(=O)c2ccc(F)cc2)c2ccccn2)CC1` | 12589 | falling, single point |
| 49 | `CCOc1ccc(N2Cc3ncccc3C2=O)cc1` | 25.12 | rising, full curve |
| 50 | `CCc1c(-c2ccccc2)nc2nc(C)c(C)nn12` | 19952 | rising, single point |
| 51 | `COc1cccc(NC(=O)CN2C(=O)COc3ccc(Cl)cc32)c1` | 15848 | falling, partial curve |
| 52 | `CC(=O)NCCC(Cc1ccccc1)c1ccco1` (centres unmarked) | 3162 | rising, single point |
| 53 | `O=C1CC(c2ccccc2)Cc2nc(N3CCc4ccccc43)ncc21` (centres unmarked) | 12589 | rising, partial curve, poor fit |
| 54 | `COC(=O)c1ccc(C2C(C#N)=C(C)NC3=C2C(=O)CC(C)(C)C3)cc1` (centres unmarked) | 12589 | rising, partial curve |
| 55 | `Cc1cc(N)c2ccccc2[n+]1CCCCCCCCCC[n+]1c(C)cc(N)c2ccccc21` | 12589 | falling, full curve, poor fit |
| 56 | `COc1ccc(C(=O)CN2C(=O)C(C)(C)Oc3ccc(C(=O)N4CCCCCC4)cc32)cc1` | 15848 | rising, partial curve |